Measured values taken from article PMC7717877.
No constants are given. Whether binding was seen depends on the method and setting. Binding seen in cells or lysates may run through a third protein. Some binding calls cover weakened binding; strength is not graded here.

Amino acid sequences for entries named in this document (tags omitted).
UniProt O35732: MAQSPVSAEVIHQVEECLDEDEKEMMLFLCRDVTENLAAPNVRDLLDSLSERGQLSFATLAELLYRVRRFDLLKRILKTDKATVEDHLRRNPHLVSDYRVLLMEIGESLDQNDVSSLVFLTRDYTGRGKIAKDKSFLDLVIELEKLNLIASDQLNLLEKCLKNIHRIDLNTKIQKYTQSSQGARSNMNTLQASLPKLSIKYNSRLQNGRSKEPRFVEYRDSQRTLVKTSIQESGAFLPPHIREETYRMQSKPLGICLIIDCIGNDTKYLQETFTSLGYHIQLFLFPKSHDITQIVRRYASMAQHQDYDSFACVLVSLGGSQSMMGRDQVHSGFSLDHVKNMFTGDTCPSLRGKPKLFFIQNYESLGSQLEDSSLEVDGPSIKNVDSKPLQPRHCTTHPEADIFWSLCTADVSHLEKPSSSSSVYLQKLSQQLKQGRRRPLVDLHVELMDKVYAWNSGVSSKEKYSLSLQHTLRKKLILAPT

Molecular target: FLICE-like inhibitory protein (mouse (endogenous in RAW264.7)) (UniProt O35732)
Test: co-IP; endogenous co-IP from lysates of RAW264.7 macrophages (control, LPS + ATP + si-NC or LPS + ATP + si-hnRNPK groups); precipitated with antibodies against FLIP and protein G-sepharose beads, washed with PBS, western blot

Heterogeneous nuclear ribonucleoprotein K (from UniProt P61979 1-463)
binding: binds
